The values below come from patent publication US6335164.

The chains behind the UniProt entries cited, without tags or fusion partners. Residues count along the entry.
UniProt P0A7G6, 2-353: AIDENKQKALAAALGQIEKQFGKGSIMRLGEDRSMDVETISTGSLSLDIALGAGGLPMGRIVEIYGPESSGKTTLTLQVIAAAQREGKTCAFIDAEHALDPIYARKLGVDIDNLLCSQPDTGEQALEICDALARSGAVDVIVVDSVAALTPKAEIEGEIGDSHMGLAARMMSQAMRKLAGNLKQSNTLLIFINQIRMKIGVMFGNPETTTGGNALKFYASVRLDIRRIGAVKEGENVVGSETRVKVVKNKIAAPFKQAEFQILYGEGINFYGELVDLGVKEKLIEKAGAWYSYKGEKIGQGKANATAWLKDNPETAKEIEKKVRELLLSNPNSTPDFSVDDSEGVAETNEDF

The target of this data set is RecA (UniProt P0A7G6). Briefly: activity assay. Particulars: 5'-biotin; homologous pairing with php53B; specificity and reactivity enhanced by heterologous probes; GTPgammaS, Mg2+, 37 C; purified recombinant protein; protein details: Boehringer-Mannheim; label: biotin; single-stranded DNA.

On to “CCTTGCCGTCCCAAGCAATGGATGATTTGA [p53 homologous probe 30]”, for which the “activity on this sequence” value is recorded as “active”.
